According to PMC4691241, “Activation of ULK Kinase and Autophagy by GABARAP Trafficking from the Centrosome Is Regulated by WAC and GM130” (Molecular Cell, 2015):
No constants are given. Whether binding was seen depends on the method and setting. Binding seen in cells or lysates may run through a third protein. Some entries that bind do so weakly or less than the wild type. Sequences can lack the tags named with a protein.

Tests used:
[1] = target: T1, HA-GM130 aa774–1,002 (human) (UniProt Q08379); test: co-IP; HEK293A lysates with EGFP-WAC FL or ΔCC mixed with lysates with HA-GM130 fragments, immunoprecipitated with anti-HA, immunoblot
T1 sequence: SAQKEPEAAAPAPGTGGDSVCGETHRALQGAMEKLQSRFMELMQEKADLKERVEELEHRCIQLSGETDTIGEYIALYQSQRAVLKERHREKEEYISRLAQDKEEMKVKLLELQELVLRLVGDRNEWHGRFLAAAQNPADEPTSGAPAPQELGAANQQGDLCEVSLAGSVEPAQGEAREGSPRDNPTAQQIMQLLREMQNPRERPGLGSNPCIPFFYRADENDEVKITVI

3xHA-GM130 (human) = target: T2, 3xHA-GM130 (human) (UniProt Q08379); test: co-IP; HEK293A cells co-transfected with 3xHA-GM130 and EGFP-WAC constructs, immunoprecipitated with anti-HA, immunoblot
T2 sequence: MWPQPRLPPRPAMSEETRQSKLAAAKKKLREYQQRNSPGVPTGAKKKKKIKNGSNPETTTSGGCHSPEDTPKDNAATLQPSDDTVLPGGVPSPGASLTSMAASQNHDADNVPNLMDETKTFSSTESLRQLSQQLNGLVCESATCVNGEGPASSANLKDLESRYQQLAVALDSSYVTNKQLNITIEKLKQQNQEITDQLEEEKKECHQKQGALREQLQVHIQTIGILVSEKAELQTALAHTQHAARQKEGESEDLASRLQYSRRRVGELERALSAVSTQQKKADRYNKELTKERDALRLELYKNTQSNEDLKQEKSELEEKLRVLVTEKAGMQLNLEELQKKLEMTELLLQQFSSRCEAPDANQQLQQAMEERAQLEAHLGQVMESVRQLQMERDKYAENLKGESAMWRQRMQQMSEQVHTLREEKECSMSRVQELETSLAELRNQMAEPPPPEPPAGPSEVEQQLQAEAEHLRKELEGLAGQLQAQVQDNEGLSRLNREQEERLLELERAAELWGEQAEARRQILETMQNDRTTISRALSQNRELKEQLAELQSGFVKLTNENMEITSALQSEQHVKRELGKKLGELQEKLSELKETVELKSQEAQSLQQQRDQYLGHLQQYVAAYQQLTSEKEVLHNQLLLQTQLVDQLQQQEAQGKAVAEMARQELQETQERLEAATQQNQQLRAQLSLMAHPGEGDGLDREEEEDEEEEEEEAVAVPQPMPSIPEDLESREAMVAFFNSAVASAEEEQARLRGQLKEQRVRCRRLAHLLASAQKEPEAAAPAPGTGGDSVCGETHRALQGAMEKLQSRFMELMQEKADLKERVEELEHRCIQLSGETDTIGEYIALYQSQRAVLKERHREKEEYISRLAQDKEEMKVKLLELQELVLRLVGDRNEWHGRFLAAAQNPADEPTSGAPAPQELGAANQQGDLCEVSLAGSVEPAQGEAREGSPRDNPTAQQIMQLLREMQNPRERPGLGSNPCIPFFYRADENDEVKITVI

B1: GST-WAC FL (natural protein, human, UniProt Q9BTA9 1-647, looked up)
chain: MVMYARKQQRLSDGCHDRRGDSQPYQALKYSSKSHPSSGDHRHEKMRDAGDPSPPNKMLRRSDSPENKYSDSTGHSKAKNVHTHRVRERDGGTSYSPQENSHNHSALHSSNSHSSNPSNNPSKTSDAPYDSADDWSEHISSSGKKYYYNCRTEVSQWEKPKEWLEREQRQKEANKMAVNSFPKDRDYRREVMQATATSGFASGMEDKHSSDASSLLPQNILSQTSRHNDRDYRLPRAETHSSSTPVQHPIKPVVHPTATPSTVPSSPFTLQSDHQPKKSFDANGASTLSKLPTPTSSVPAQKTERKESTSGDKPVSHSCTTPSTSSASGLNPTSAPPTSASAVPVSPVPQSPIPPLLQDPNLLRQLLPALQATLQLNNSNVDISKINEVLTAAVTQASLQSIIHKFLTAGPSAFNITSLISQAAQLSTQAQPSNQSPMSLTSDASSPRSYVSPRISTPQTNTVPIKPLISTPPVSSQPKVSTPVVKQGPVSQSATQQPVTADKQQGHEPVSPRSLQRSSSQRSPSPGPNHTSNSSNASNATVVPQNSSARSTCSLTPALAAHFSENLIKHVQGWPADHAEKQASRLREEAHNMGTIHMSEICTELKNLRSLVRVCEIQATLREQRILFLRQQIKELEKLKNQNSFMV
notes: human WAC isoform 1, full length; also called recombinant GST-WAC; source: recombinant
[1]
  binding: binds
3xHA-GM130 (human)
  binding: binds

B2: EGFP-WAC aa1–610 (ΔCC) (domain or fragment, UniProt Q9BTA9 1-610)
chain: MVMYARKQQRLSDGCHDRRGDSQPYQALKYSSKSHPSSGDHRHEKMRDAGDPSPPNKMLRRSDSPENKYSDSTGHSKAKNVHTHRVRERDGGTSYSPQENSHNHSALHSSNSHSSNPSNNPSKTSDAPYDSADDWSEHISSSGKKYYYNCRTEVSQWEKPKEWLEREQRQKEANKMAVNSFPKDRDYRREVMQATATSGFASGMEDKHSSDASSLLPQNILSQTSRHNDRDYRLPRAETHSSSTPVQHPIKPVVHPTATPSTVPSSPFTLQSDHQPKKSFDANGASTLSKLPTPTSSVPAQKTERKESTSGDKPVSHSCTTPSTSSASGLNPTSAPPTSASAVPVSPVPQSPIPPLLQDPNLLRQLLPALQATLQLNNSNVDISKINEVLTAAVTQASLQSIIHKFLTAGPSAFNITSLISQAAQLSTQAQPSNQSPMSLTSDASSPRSYVSPRISTPQTNTVPIKPLISTPPVSSQPKVSTPVVKQGPVSQSATQQPVTADKQQGHEPVSPRSLQRSSSQRSPSPGPNHTSNSSNASNATVVPQNSSARSTCSLTPALAAHFSENLIKHVQGWPADHAEKQASRLREEAHNMGTIHMSEICTELKNLRS
[1]
  binding: no binding
